# Test results: publication PMC13455383
# Protein sequences, listed by entry. Tags and fused reporters are not part of them.
# UniProt P11166: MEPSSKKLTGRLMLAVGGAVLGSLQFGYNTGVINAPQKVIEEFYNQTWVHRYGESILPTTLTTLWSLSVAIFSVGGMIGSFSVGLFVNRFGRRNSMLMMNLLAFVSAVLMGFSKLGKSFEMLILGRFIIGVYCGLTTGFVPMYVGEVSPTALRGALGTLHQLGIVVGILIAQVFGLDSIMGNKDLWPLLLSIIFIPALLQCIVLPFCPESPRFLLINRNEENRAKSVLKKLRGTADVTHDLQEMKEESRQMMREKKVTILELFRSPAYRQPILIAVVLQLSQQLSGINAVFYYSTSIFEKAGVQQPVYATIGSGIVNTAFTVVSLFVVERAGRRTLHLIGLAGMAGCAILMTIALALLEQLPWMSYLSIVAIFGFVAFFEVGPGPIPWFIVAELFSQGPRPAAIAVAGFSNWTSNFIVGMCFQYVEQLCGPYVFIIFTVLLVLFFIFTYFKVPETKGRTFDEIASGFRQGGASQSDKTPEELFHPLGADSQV
# UniProt P62820: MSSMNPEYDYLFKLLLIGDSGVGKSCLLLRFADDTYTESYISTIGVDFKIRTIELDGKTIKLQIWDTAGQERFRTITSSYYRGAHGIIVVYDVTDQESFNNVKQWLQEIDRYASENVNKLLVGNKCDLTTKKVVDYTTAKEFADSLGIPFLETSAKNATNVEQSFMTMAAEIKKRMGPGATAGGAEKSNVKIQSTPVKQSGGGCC
# UniProt P20339: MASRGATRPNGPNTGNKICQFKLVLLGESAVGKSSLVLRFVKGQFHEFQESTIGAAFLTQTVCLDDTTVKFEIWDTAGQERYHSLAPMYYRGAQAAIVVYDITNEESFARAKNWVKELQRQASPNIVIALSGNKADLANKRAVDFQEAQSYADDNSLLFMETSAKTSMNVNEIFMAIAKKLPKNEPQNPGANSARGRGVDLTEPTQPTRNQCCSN
# No constants are given. Whether binding was seen depends on the method and setting. In cells and extracts the contact can be indirect. Some binding calls cover weakened binding; strength is not graded here.
# Target: Flag-tagged GLUT1 (glucose transporter 1) (human) (UniProt P11166)
# Test: co-IP; Flag-GLUT1-expressing 293T cells infected with S. Typhimurium (SCVs enriched with magnetic nanoparticles) or left uninfected; anti-Flag immunoprecipitation; immunoblotting for Rab1 and Rab5
substance,measurement,value
Rab1A (from UniProt P62820 1-205),binding,binds
Rab5A (from UniProt P20339 1-215),binding,binds
